Consider two molecules from paper doi:10.1101/543645.

What all share (experiment): two-hybrid
The target in experiment [1] is Gal4 DNA-binding domain (GBD)–NPR1(386-465) (tobacco (Nicotiana tabacum)).
The target in experiment [2] is NtNPR1(466-588), reciprocal Gal4 fusion (Gal4 DNA-binding domain) (tobacco (Nicotiana tabacum)).
Experiment [3] addresses GBD–NtNPR1(386-588) (tobacco (Nicotiana tabacum)).

Results are given in words; binding and its absence hold for the method and conditions named. For part of these data: Binding calls can cover weak binding; strength is not graded here.

B1: NtTGA2.1 (protein, UniProt O24160 1-456)
chain: MASKIGTAGNRSGTTGMPSFISQIPVSNPMGTEANNTNTSRMSDFGVLEQYLGFRIGDGANVNRSPLFNSTSATNPAVGFEVSGTINRTLAPSNTSLPTATPRSQTMLLQSNLVSASGTHHENWGESNMADSGSRTDTSTDMDGDDKNQLIEAGQSSDKSKEKVLDQKTLRRLAQNREAARKSRLRKKAYVQQLENSRLKLSQLEQDLQRARQQGKYISNIADQSNGVGANGPLAFDAEYSRWLEEHNKHINELRTAVNAHASDPELRSIVNNVTAHFDEVFRVKGNAAKADVFHVLSGMWKTPAERCFMWIGGFRPSELLKLLVNQLEPLTEQQLAGIYNLQQSSHQAEDALSQGMEALQQSLAETLANGSPAPEGSSGDVANYMGQMAMAMGKLGTLEGFLRQADNLRQQTLQQMHRVLTTRQSARALLAINEYFSRLRALSSLWLARPREQLV
On to B1, for which the binding entry in experiment [1] and in experiment [2] was “no binding” each time.

B2: TGA1a (protein, UniProt P14232 1-359)
chain: MGICDPIHQLGMWDDFNSSFPSTSATMILEVDKCLEDQIPIMEKRLDNETEDTSHGTVGTSNRYEPETSKPVEKVLRRLAQNREAARKSRLRKKAYVQQLENSKLKLIQLEQELERARKQGMCVGGGVDASQLSYSGTASSGTAVFDMEYGHWVEEQTRQTNDLRIALHSQIGEAELRIIVDGYLNHYFDLFRMKATAAKADVLYIMSGMWKTSAERFFMWIGGFRPSELLKVLTPHLELLTEQQLREVCNLTQSCQQAEDALSQGMVKLHQILAEAVAAGRLGEGNYTLPQMGPAIEKLEDLVRFVNQADHLRQETLQQMSRILNTCQAAQGLLALGEYFERLRVLSSQWATRLREPT
On to B2, for which, in experiment [3], the binding entry is reported as “binds”.
